These are yes or no findings as the source states them, for the method shown. Binding seen in cells or lysates may run through a third protein. Some binding calls cover weakened binding; strength is not graded here.
Assays:
[1] = target: sirtuin5 (SIRT5), endogenous (human (endogenous in HCT116 and LoVo)) (UniProt Q9NXA8); assay: co-IP; endogenous SIRT5 immunoprecipitated with anti-SIRT5 antibody from HCT116 and LoVo lysates (RIPA buffer, Protein G agarose), Western blot with anti-TKT; IgG immunoprecipitation as control
[2] = target: FLAG-SIRT5 WT (UniProt Q9NXA8); assay: co-IP; FLAG-SIRT5 WT or H158Y expressed in HCT116 and LoVo cells, RIPA lysate, Protein G agarose; which partner was precipitated is not told
[3] = target: FLAG-SIRT5 H158Y (UniProt Q9NXA8); assay: as above

Sequences of proteins named here, by UniProt entry; tags and fusion partners are left off. A change or cut given only in a name is not applied to a line headed by its entry. A line that says so, or that is headed by a name, gives the form on record, which may keep a tag or linker. Residues count along the entry.
FLAG-SIRT5 WT (Q9NXA8, residues 37-310): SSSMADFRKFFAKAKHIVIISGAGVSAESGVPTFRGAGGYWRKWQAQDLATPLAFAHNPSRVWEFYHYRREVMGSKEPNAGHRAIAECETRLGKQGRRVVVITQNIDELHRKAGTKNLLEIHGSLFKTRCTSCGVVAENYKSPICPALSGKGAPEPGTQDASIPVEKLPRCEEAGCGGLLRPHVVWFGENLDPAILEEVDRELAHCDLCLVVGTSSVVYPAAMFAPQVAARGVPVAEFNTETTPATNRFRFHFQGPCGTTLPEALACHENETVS
FLAG-SIRT5 H158Y (Q9NXA8, form named): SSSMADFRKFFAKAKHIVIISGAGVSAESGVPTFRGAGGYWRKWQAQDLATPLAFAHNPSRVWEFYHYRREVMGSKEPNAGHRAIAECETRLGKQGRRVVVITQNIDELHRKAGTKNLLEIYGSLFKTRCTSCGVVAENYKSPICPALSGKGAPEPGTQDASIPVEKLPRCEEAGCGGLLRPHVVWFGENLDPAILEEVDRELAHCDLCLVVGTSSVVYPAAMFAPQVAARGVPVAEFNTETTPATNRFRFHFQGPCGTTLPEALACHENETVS

Measured: binding

B1: transketolase (TKT), endogenous (enzyme, UniProt P29401 1-623)
chain: MESYHKPDQQKLQALKDTANRLRISSIQATTAAGSGHPTSCCSAAEIMAVLFFHTMRYKSQDPRNPHNDRFVLSKGHAAPILYAVWAEAGFLAEAELLNLRKISSDLDGHPVPKQAFTDVATGSLGQGLGAACGMAYTGKYFDKASYRVYCLLGDGELSEGSVWEAMAFASIYKLDNLVAILDINRLGQSDPAPLQHQMDIYQKRCEAFGWHAIIVDGHSVEELCKAFGQAKHQPTAIIAKTFKGRGITGVEDKESWHGKPLPKNMAEQIIQEIYSQIQSKKKILATPPQEDAPSVDIANIRMPSLPSYKVGDKIATRKAYGQALAKLGHASDRIIALDGDTKNSTFSEIFKKEHPDRFIECYIAEQNMVSIAVGCATRNRTVPFCSTFAAFFTRAFDQIRMAAISESNINLCGSHCGVSIGEDGPSQMALEDLAMFRSVPTSTVFYPSDGVATEKAVELAANTKGICFIRTSRPENAIIYNNNEDFQVGQAKVVLKSKDDQVTVIGAGVTLHEALAAAELLKKEKINIRVLDPFTIKPLDRKLILDSARATKGRILTVEDHYYEGGIGEAVSSAVVGEPGITVTHLAVNRVPRSGKPAELLKMFGIDRDAIAQAVRGLITKA
binds: [1] | [2] | [3]
